In this assay the target is T1, ABA …5 (ABI5) (Arabidopsis thaliana) (UniProt Q9SJN0).
T1 sequence: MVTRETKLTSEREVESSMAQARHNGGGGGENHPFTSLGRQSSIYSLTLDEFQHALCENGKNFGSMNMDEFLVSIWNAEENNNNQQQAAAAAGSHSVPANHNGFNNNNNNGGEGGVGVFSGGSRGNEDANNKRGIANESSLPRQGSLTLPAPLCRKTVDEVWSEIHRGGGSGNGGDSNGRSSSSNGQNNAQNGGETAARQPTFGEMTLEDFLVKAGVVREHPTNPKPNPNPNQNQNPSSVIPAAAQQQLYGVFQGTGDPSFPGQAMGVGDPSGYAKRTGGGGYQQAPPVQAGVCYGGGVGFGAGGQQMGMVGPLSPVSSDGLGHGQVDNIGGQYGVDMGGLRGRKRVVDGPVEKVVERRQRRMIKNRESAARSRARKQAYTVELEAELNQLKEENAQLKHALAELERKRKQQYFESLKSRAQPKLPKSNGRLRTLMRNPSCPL
As to the kind of experiment: two-hybrid; Matchmaker LexA system; CSN5A or CSN5B in pB42AD (AD), ABI5 in pLexA (BD); yeast EGY48 with p8op-LacZ; SD/-His/-Trp/-Ura plates with X-Gal, blue colour.

By UniProt entry, the sequences of proteins in these tests, tags left out.
UniProt Q8LAZ7: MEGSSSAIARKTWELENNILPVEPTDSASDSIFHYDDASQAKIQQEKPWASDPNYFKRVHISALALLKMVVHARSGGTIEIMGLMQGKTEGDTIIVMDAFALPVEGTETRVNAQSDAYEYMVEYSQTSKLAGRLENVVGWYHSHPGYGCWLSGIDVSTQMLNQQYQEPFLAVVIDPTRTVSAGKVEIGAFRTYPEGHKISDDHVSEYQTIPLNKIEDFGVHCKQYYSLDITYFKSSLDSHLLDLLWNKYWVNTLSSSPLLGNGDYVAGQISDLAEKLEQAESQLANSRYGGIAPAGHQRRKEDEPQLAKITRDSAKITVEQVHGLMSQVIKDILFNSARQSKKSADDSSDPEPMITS

Results are given in words; binding and its absence hold for the method and conditions named. Some results given as binding are weak or reduced against the parent protein; the word gives no strength.

CSN5A (from UniProt Q8LAZ7 1-357): the binding result is “binds”.
